Assay results reported in PubChem BioAssay AID651640 (Broad Institute, 2012).
Among all 350,000 compounds or so, about 6,000 (1.7%) were called active. The shares of active, inactive and inconclusive entries below differ from those in the screen. Cut-off read from the data, not from the text of the source: active = CPE inhibition above about 20% (passing the limit was not always enough); inconclusive = no clear call, values can overlap the other calls; tested in BHK-21 cells.

Test: protection of cells from dengue 2 killing – plate reader, single concentration, primary screen (AID 651640);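 note: 0% = median of neutral control wells and 100% = median of positive control wells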
Details: DENV2-infected cells, cytopathic effect rescue, at 9.99 µM, active compounds read high

| SMILES | CPE inhibition |
| --- | --- |
| COc1ccc(NC(=O)Nc2ccc3c(c2)C(=O)N([C@H](C)CO)C[C@H](C)[C@H](CN(C)C(=O)Nc2ccc(C(F)(F)F)cc2)OCCCC[C@H](C)O3)cc1 | active: 47.8% |
| Cc1cccc(OCCCN2CCC(C(O)(c3ccccc3)c3ccccc3)CC2)c1 | active: 34.5% |
| COc1ccc([C@@H]2[C@@H]3C(=O)N(C(C)(C)C)C(=O)[C@@H]3[C@]3(C)C(=O)N(c4ccc(C(F)(F)F)cc4)C(=O)N23)cc1 | inconclusive: 45% |
| O=C(NCCCN1CCOCC1)C(=O)N/N=C/c1ccccc1Cl | inactive: 7.59% |
| Cc1nn(-c2ccccc2)c(Cl)c1/C=N/Nc1nc2ccccc2[nH]1 | inactive: 4.72% |
| COc1ccc(C(=O)CCC(=O)NCCc2c[nH]c3ccccc23)cc1 | inconclusive: 37.8% |
| COCCCn1cc(CN2CC(N3CCN(C4CCN(C)CC4)CC3)CS2(=O)=O)nn1 (configuration not stated) | inconclusive: 46.7% |
| C[C@H](CO)N1C[C@H](C)[C@@H](CN(C)C(=O)NC2CCCCC2)Oc2cc(C#Cc3ccc(F)cc3)ccc2S1(=O)=O | inconclusive: 22.2% |
| CC(=O)N1c2ccc(S(=O)(=O)N(C)CC(=O)Nc3cccc(C)c3)cc2CC1C (configuration not stated) | inconclusive: 37.3% |
| O=C(C[C@@H]1CC[C@@H]2NC[C@@H](O)COC[C@H]2O1)NCCc1ccccc1 | inactive: -2.16% |
| Nc1nc(-c2cc(-c3ccccc3)no2)cs1 | inconclusive: 37.3% |
| COc1ccc(CC(=O)N/N=C/c2cc(Br)cs2)cc1OC | inconclusive: 53.9% |
| Cc1csc2c(=O)n(CCO)c(=O)[nH]c12 | inconclusive: 20.1% |
| N#Cc1cccc(-c2ccc3c(c2)[C@H]2[C@H](CCN2Cc2ccc4c(c2)OCO4)[C@H](CO)N3)c1 | inconclusive: 38.5% |
| CCNC(=O)C[C@H]1CC[C@H]2[C@@H](COc3ccc(NC(=O)c4cccc(OC)c4)cc3C(=O)N2C)O1 | inactive: 7.14% |
| COc1ccccc1-c1nnc2sc(-c3ccc(N(C)C)cc3)nn12 | active: 42.1% |
| COC(=O)c1cc2c(c3c4cc(F)ccc4n(S(=O)(=O)c4ccccc4)c13)C(=O)N(Cc1ccc(N(C)C)cc1)C2 | inconclusive: 23.7% |
| CCCCCCOc1ccc(N2C(=O)CC(N3CCN(CCN=CC4=C(O)CC(C)(C)CC4=O)CC3)C2=O)cc1 (configuration not stated) | inactive: 0.997% |
| Cc1cc(N2CCN(C)CC2)n2nc(-c3ccc(Cl)cc3)nc2n1 | active: 35.1% |
| Cc1cc(=O)nc2c3ccccc3n(CC(=O)NCCCN3CCCC3=O)n12 | inconclusive: 23.9% |
| COc1ccc2[nH]c3c(=O)n(CCCC(=O)NC4CCC(C)CC4)c(=S)[nH]c3c2c1 (configuration not stated) | inactive: 5.52% |
| O=C(C1CC1)N1CC2(C1)[C@H](c1ccccc1)[C@@H](CO)N2Cc1nccs1 | active: 36.9% |
| C[C@@H]1CN([C@H](C)CO)C(=O)c2cccc(NC(=O)Nc3ccccc3)c2O[C@@H]1CN(C)Cc1ccc2c(c1)OCO2 | inconclusive: 27.2% |
| C[C@@H]1CCCCO[C@@H](CN(C)S(=O)(=O)c2ccccc2)[C@H](C)CN([C@@H](C)CO)C(=O)c2cc(NC(=O)Nc3ccc(C(F)(F)F)cc3)ccc2O1 | inconclusive: 42.7% |

| SMILES | CPE inhibition |
| --- | --- |
| C[C@H](CO)N1C[C@H](C)[C@H](CN(C)S(=O)(=O)c2ccc(F)cc2)Oc2ccc(NS(=O)(=O)c3ccc(Cl)cc3)cc2C1=O | inconclusive: 55.4% |
| COc1ccc(O)c(CN2CCCC(N3CCN(c4ccccc4OC)CC3)C2)c1 (configuration not stated) | inconclusive: 20.3% |
| OC[C@H]1[C@@H]2c3ccccc3NC[C@@H]2N1CC1CCOCC1 | active: 22.1% |
| Cc1cccc(C)c1OCC(=O)Nc1ccccc1C(=O)N1CCOCC1 | inconclusive: 31.8% |
| O=C(NCc1cccc(F)c1)[C@H]1[C@H](CO)[C@H]2Cn3c(cccc3=O)[C@@H]1N2C(=O)c1cnccn1 | inconclusive: 21.3% |
| C[C@@H]1CN([C@H](C)CO)C(=O)c2cc(C#Cc3ccccn3)cnc2O[C@@H]1CN(C)C(=O)c1cnccn1 | inconclusive: -8.09% |
| CCn1cc(CN2CCC(C(=O)Nc3ccc(Oc4ccccc4)nc3)CC2)cn1 | inconclusive: 22.2% |
| COc1ccc(CCN2CCC(CN3C(=S)NC[C@@H]3Cc3ccccc3)CC2)cc1OC | active: 93.3% |
| CCOc1ccccc1N(CC(=O)N1CCCCCC1)S(=O)(=O)c1ccc(C)cc1 | inactive: -1.29% |
| O=C(Nc1cccc(C(=O)O)c1)/C(=C\c1ccccc1)NC(=O)c1ccco1 | active: 26.6% |
| CC(C)c1ccc(NC(=O)NCc2ccc3c(c2)OCO3)cc1 | inconclusive: 45.1% |
| CCCC#Cc1ccc([C@H]2[C@@H](CO)N(C(=O)C3CC3)[C@H]2C#N)cc1 | active: 39.4% |
| COCc1cccc(C2=CC(=O)C[C@H](c3ccc(OC)cc3)C2)c1 | inconclusive: 68.7% |
| O=C(CSc1n[nH]c(-c2ccco2)n1)Nc1ccc(Br)cc1 | active: 30.3% |
| O=C(NC1CCCCC1)C1c2ccccc2OCC(=O)N1CC(F)(F)F (configuration not stated) | inconclusive: 22.8% |
| Cc1noc(C)c1NC(=O)Nc1ccc2c(c1)C(=O)N([C@@H](C)CO)C[C@@H](C)[C@H](CN(C)Cc1ccc(Cl)c(Cl)c1)OCCCC[C@H](C)O2 | inactive: 1.55% |
| CC(C)C[C@@H](CSc1ccccc1)N1CCN(CC(C)C)CCC1=O | inactive: 0.297% |
| CCOC(=O)Cn1c(C(F)(F)F)nc2nc(Cl)c(Cl)nc21 | inconclusive: 27.5% |
| CC(=O)N1c2ccccc2[C@H](C)[C@H]1C | active: 69.6% |
| CO[C@H]1CN(C)C(=O)c2ccc(NS(=O)(=O)CC(F)(F)F)cc2OC[C@H](C)NC[C@H]1C | inconclusive: 57.4% |
| Cc1ccc(C(=O)OCc2c(C)noc2C)cc1NC(=O)c1ccco1 | inconclusive: 22.6% |
| Cc1ccc(S(=O)(=O)Nc2ccc3c(c2)C(=O)N([C@H](C)CO)C[C@H](C)[C@@H](CN(C)S(=O)(=O)c2ccc(Cl)cc2)OCCCC[C@H](C)O3)cc1 | active: 36.8% |
| Nc1c(C(=O)N/N=C/c2cccnc2)oc2nc(-c3ccco3)cc(-c3ccco3)c12 | inactive: 2.67% |

An excerpt of these results, tab-delimited.
SMILES	CPE inhibition
C[C@H](CO)N1C[C@H](C)[C@H](CN(C)S(=O)(=O)c2ccc(F)cc2)Oc2ccc(NS(=O)(=O)c3ccc(Cl)cc3)cc2C1=O	inconclusive: 55.4%
COCc1cccc(C2=CC(=O)C[C@H](c3ccc(OC)cc3)C2)c1	inconclusive: 68.7%
Cc1ccc(S(=O)(=O)Nc2ccc3c(c2)C(=O)N([C@H](C)CO)C[C@H](C)[C@@H](CN(C)S(=O)(=O)c2ccc(Cl)cc2)OCCCC[C@H](C)O3)cc1	active: 36.8%
